The supplement of paper PMC10331698
± gives the standard deviation of the averaged measurements. Most entries show no effect beyond the scatter of the controls.

Assays:
Test in all cases: level (log10 ratio to DMSO vehicle control); higher = higher biomarker level / cell amount than vehicle control
[1] = compound: NC(=O)C(F)(F)C(F)(F)C(F)(F)F [Heptafluorobutyramide]; conditions: 2200 nM; in DMSO
Procedure: (§1)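 BioMAP Diversity Plus panel of 12 human primary cell co-culture systems (3C, 4H, LPS, SAg, BT, BF4T, BE3C, CASM3C, HDF3CGF, KF3CT, MyoF, Mphg). Compounds were added 1 h before stimulation and left for 24 h (MyoF 48 h; BT 72 h for soluble read-outs or 6 d for IgG). Biomarkers were read by ELISA, cytotoxicity by SRB, PBMC viability and proliferation by Alamar Blue. Each well value was divided by the mean of 8 DMSO control wells on the same plate and log10 transformed; duplicate blinded samples were tested at 4 concentrations.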

[2] = compound: O=C(O)C(F)(F)C(F)(F)C(F)(F)C(F)(F)F [Perfluoropentanoic acid]; conditions: in DMSO
Procedure: as §1

[3] = compound: CC(C)(C)C(=O)CC(=O)C(F)(F)C(F)(F)C(F)(F)F [(Heptafluorobutanoyl)pivaloylmethane]; conditions: 2200 nM; in DMSO
Procedure: as §1

[4] = compound: CCN(CCO)S(=O)(=O)C(F)(F)C(F)(F)C(F)(F)C(F)(F)C(F)(F)C(F)(F)C(F)(F)C(F)(F)F [N-Ethyl-N-(2-hydroxyethyl)perfluorooctanesulfonamide]; conditions: in DMSO
Procedure: as §1

[5] = compound: OCC(F)(F)C(F)(F)C(F)(F)F [1H,1H-Heptafluorobutanol]; conditions: 2200 nM; in DMSO
Procedure: as §1

[6] = compound: CCCCCCCCC(F)(F)C(F)(F)C(F)(F)C(F)(F)C(F)(F)C(F)(F)F [1-(Perfluorohexyl)octane]; conditions: in DMSO
Procedure: as §1

[7] = compound: OCCC(F)(F)C(F)(F)C(F)(F)C(F)(F)C(F)(F)C(F)(F)F [6:2 Fluorotelomer alcohol]; conditions: 2200 nM; in DMSO
Procedure: as §1

[8] = compound: NCC(F)(F)C(F)(F)C(F)(F)C(F)(F)C(F)(F)C(F)(F)C(F)(F)F [1H,1H-Perfluorooctylamine]; conditions: 2200 nM; in DMSO
Procedure: as §1

[9] = compound: CN(C(=O)C(F)(F)C(F)(F)C(F)(F)F)[Si](C)(C)C [N-Methyl-N-trimethylsilylheptafluorobutyramide]; conditions: 2200 nM; in DMSO
Procedure: as §1

[10] = compound: O=C(O)C(F)(F)C(F)(F)C(F)(F)C(F)(F)C(F)(F)C(F)(F)C(F)(F)C(F)(F)C(F)(F)C(F)F [11-H-Perfluoroundecanoic acid]; conditions: 2200 nM; in DMSO
Procedure: as §1

[11] = compound: FC(F)(F)C(F)(F)C(F)(F)C(F)(F)C(F)(F)C(F)(F)CC1CO1 [3-(Perfluorohexyl)-1,2-epoxypropane]; conditions: 2200 nM; in DMSO
Procedure: as §1

[12] = compound: O=S(=O)(O)CCC(F)(F)C(F)(F)C(F)(F)C(F)(F)C(F)(F)C(F)(F)C(F)(F)C(F)(F)F [8:2 Fluorotelomer sulfonic acid]; conditions: in DMSO
Procedure: as §1

[13] = compound: O=C(O)C(F)(F)C(F)(F)C(F)(F)C(F)(F)C(=O)O [Octafluoroadipic acid]; conditions: 2200 nM; in DMSO
Procedure: as §1

[14] = compound: O=C(O)C(F)(F)C(F)(F)C(F)(F)C(F)(F)C(F)(F)C(F)(F)F [Perfluoroheptanoic acid]; conditions: in DMSO
Procedure: as §1

[15] = compound: O=C(O)C(F)(F)C(F)(F)C(F)(F)OC(F)(F)F [Perfluoro(4-methoxybutanoic) acid]; conditions: 2200 nM; in DMSO
Procedure: as §1

[16] = compound: Cc1ccc(S(=O)(=O)OCC(F)(F)C(F)(F)C(F)(F)C(F)(F)C(F)(F)C(F)F)cc1 [1H,1H,7H-Perfluoroheptyl 4-methylbenzenesulfonate]; conditions: 2200 nM; in DMSO
Procedure: as §1

| Test System | level (log10) [1] | level (log10) ([2]; 2200 nM) | level (log10) ([2]; 6700 nM) | level (log10) ([2]; 20000 nM) | level (log10) ([2]; 60000 nM) | level (log10) [3] | level (log10) ([4]; 2200 nM) | level (log10) ([4]; 6700 nM) | level (log10) ([4]; 20000 nM) | level (log10) [5] | level (log10) ([6]; 740 nM) | level (log10) ([6]; 2200 nM) | level (log10) [7] | level (log10) [8] | level (log10) [9] | level (log10) [10] | level (log10) [11] | level (log10) ([12]; 2200 nM) | level (log10) ([12]; 6700 nM) | level (log10) ([12]; 20000 nM) | level (log10) ([12]; 60000 nM) | level (log10) [13] | level (log10) ([14]; 2200 nM) | level (log10) ([14]; 6700 nM) | level (log10) ([14]; 20000 nM) | level (log10) ([14]; 60000 nM) | level (log10) [15] | level (log10) [16] |
| --- | --- | --- | --- | --- | --- | --- | --- | --- | --- | --- | --- | --- | --- | --- | --- | --- | --- | --- | --- | --- | --- | --- | --- | --- | --- | --- | --- | --- |
| 4H:CCL2/MCP-1 | 0.012 ± 0.051 | 0.0095 ± 0.047 | -0.0085 ± 0.052 | -0.047 ± 0.0042 | 0.014 ± 0.052 | 0.023 ± 0.072 | 0.022 ± 0.0099 | -0.007 ± 0.0099 | -0.159 ± 0.044 | 0.031 ± 0.058 | 0.0255 ± 0.12 | -0.026 ± 0.0099 | 0.031 ± 0.062 | 0.0165 ± 0.066 | 0.022 ± 0.069 | -0.0125 ± 0.076 | 0.023 ± 0.038 | 0.0075 ± 0.047 | -0.001 ± 0.014 | -0.033 ± 0.016 | 0.0125 ± 0.046 | -0.005 ± 0.078 | 0.0175 ± 0.043 | -0.0115 ± 0.0064 | -0.0165 ± 0.013 | 0.025 ± 0.024 | 0.0355 ± 0.035 | -0.002 ± 0.1 |
| 4H:CCL26/Eotaxin-3 | 0.0365 ± 0.021 | 0.003 ± 0.0071 | 0.0015 ± 0.0035 | -0.0185 ± 0.022 | 0.004 ± 0.05 | -0.002 ± 0.014 | 0.081 ± 0.058 | 0.077 ± 0.031 | -0.143 ± 0.14 | 0.008 ± 0.016 | 0.0135 ± 0.03 | 0.001 ± 0.0028 | 0.062 ± 0.051 | 0.033 ± 0.052 | 0.0085 ± 0.046 | -0.049 ± 0.03 | 0.0005 ± 0.0064 | 0.0145 ± 0.021 | 0.0095 ± 0.06 | -0.0325 ± 0.015 | -0.075 ± 0.0042 | 0.0165 ± 0.005 | 0.0045 ± 0.005 | 0.0055 ± 0.0064 | 0.0045 ± 0.0092 | -0.015 ± 0.0085 | 0.0275 ± 0.011 | 0.013 ± 0.024 |
| 4H:CD62P/P-selectin | 0.025 ± 0.0071 | 0.003 ± 0.0014 | -0.0025 ± 0.067 | -0.023 ± 0.03 | -0.0285 ± 0.043 | -0.0205 ± 0.069 | 0.007 ± 0.014 | -0.079 ± 0.0014 | -0.142 ± 0.044 | 0.0695 ± 0.066 | -0.0295 ± 0.057 | 0.0025 ± 0.044 | -0.004 ± 0.0057 | -0.0175 ± 0.012 | -0.0035 ± 0.015 | 0.0245 ± 0.0021 | -0.009 ± 0.017 | -0.0205 ± 0.0021 | -0.0315 ± 0.09 | -0.034 ± 0.099 | -0.015 ± 0.071 | -0.012 ± 0.017 | 0.009 ± 0.0014 | 0.007 ± 0.018 | 0.0035 ± 0.016 | 0.0605 ± 0.05 | -0.004 ± 0.05 | 0.018 ± 0.03 |
| 4H:CD87/uPAR | 0.0455 ± 0.0064 | -0.023 ± 0.025 | -0.0435 ± 0.035 | -0.0355 ± 0.005 | -0.055 ± 0.0028 | -0.0025 ± 0.0092 | -0.0285 ± 0.0064 | -0.037 ± 0.037 | -0.088 ± 0.024 | 0.0165 ± 0.0021 | 0.0135 ± 0.0021 | 0.0015 ± 0.00071 | -0.0205 ± 0.0035 | -0.0205 ± 0.043 | 0.014 ± 0.03 | 0.0195 ± 0.028 | 0.0535 ± 0.096 | 0.0035 ± 0.00071 | 0.026 ± 0.0028 | -0.01 ± 0.023 | -0.0345 ± 0.015 | 0.045 ± 0.02 | 0.0445 ± 0.011 | 0.0355 ± 0.042 | -0.007 ± 0.054 | 0.061 ± 0.14 | 0.0405 ± 0.033 | 0.0125 ± 0.0064 |
| 4H:CD106/VCAM-1 | -0.017 ± 0.044 | 0.0105 ± 0.016 | 0.002 ± 0.038 | 0.0125 ± 0.0021 | 0.024 ± 0.013 | 0.013 ± 0.014 | 0.062 ± 0.0057 | 0.116 ± 0.021 | 0.0765 ± 0.0021 | 0.029 ± 0.0085 | -0.0075 ± 0.046 | 0.0115 ± 0.016 | 0.0055 ± 0.00071 | 0.0245 ± 0.00071 | 0.0305 ± 0.061 | 0.01 ± 0.034 | 0.007 ± 0.0042 | -0.0105 ± 0.035 | -0.0065 ± 0.025 | -0.018 ± 0.0014 | -0.0375 ± 0.0021 | -0.003 ± 0.016 | 0.037 ± 0.02 | 0.0215 ± 0.035 | 0.0045 ± 0.049 | 0.007 ± 0.017 | 0.008 ± 0.021 | 0.0405 ± 0.09 |
